Measurements reported in PubChem BioAssay AID743121 (NCATS, 2013).
This is an unselected part of about 26,000 deposited reagents. 167 of all reagents (0.63%) were called active. 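Calls are per gene from RSA p-values that are not deposited; an individual active-marked siRNA can sensitise only weakly.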 The numbers tell different reagents against one gene apart.

Aim: 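Genes whose silencing strengthens cell killing by camptothecin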 (primary screen)
Cells: MDA-MB-231 cells, a human breast cancer line
Reagent: single siRNA against human genes, 20 nM siRNA (0.8 pmol per well)
Time to read-out: 120 h (drug added 48 h after transfection, read 72 h later)
Treatment: camptothecin 20 nM (about EC30) for 72 h; vehicle 0.1% DMSO in parallel plates
Measurement: 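Cell viability by ATP luminescence (CellTiter-Glo) as % of non-targeting siRNA wells, and the log2 ratio of viability without drug over viability with camptothecin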
Direction: log2 vehicle/camptothecin viability: higher = stronger sensitisation to camptothecin; viability with camptothecin and viability without drug: higher = more viable cells
Active means: 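Each gene scored by redundant siRNA activity (RSA) over its individual siRNA ratios; a gene is called active at p < 0.001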

Gene	reagent	log2 vehicle/camptothecin viability	viability with camptothecin (% of control)	viability without drug (% of control)	Call
CAPNS1 (GeneID 826)	1	-0.313	84.8	68.2	inactive
CAPNS1 (GeneID 826)	2	-0.159	78.5	70.4	inactive
CAPNS1 (GeneID 826)	3	-0.712	52.3	31.9	inactive
CAPNS1 (GeneID 826)	4	-0.282	101	83.2	inactive
TLE5 (GeneID 166)	1	0.01	91.6	92.3	inactive
TLE5 (GeneID 166)	2	-0.26	90.7	75.7	inactive
TLE5 (GeneID 166)	3	-0.328	52.2	41.6	inactive
TLE5 (GeneID 166)	4	-0.306	63.2	51.1	inactive
SDR9C7 (GeneID 121214)	1	-0.377	73	56.2	inactive
SDR9C7 (GeneID 121214)	2	-0.469	108	78.4	inactive
SDR9C7 (GeneID 121214)	3	-0.295	88.3	72	inactive
SDR9C7 (GeneID 121214)	4	0.093	78.8	84.1	inactive
CDH1 (GeneID 999)	1	0.1	62.8	67.3	inactive
CDH1 (GeneID 999)	2	-0.216	62.3	53.6	inactive
CDH1 (GeneID 999)	3	-0.0126	95.1	94.3	inactive
CDH1 (GeneID 999)	4	-0.27	104	86.2	inactive
SMARCA4 (GeneID 6597)	1	-0.0203	86.3	85.1	inactive
SMARCA4 (GeneID 6597)	2	0.102	104	112	inactive
SMARCA4 (GeneID 6597)	3	0.197	74.7	85.7	inactive
SMARCA4 (GeneID 6597)	4	0.453	74.9	103	inactive
STK36 (GeneID 27148)	1	-0.284	117	96.4	inactive
STK36 (GeneID 27148)	2	-0.243	87.5	74	inactive
STK36 (GeneID 27148)	3	-0.109	88.5	82.1	inactive
STK36 (GeneID 27148)	4	-0.145	89.5	81	inactive
STAMBPL1 (GeneID 57559)	1	-0.594	36.9	24.4	inactive
STAMBPL1 (GeneID 57559)	2	-0.232	84.5	71.9	inactive
STAMBPL1 (GeneID 57559)	3	-0.247	92.2	77.6	inactive
STAMBPL1 (GeneID 57559)	4	0.0317	79.9	81.7	inactive

Already shown: an excerpt of the list.
Gene	reagent	log2 vehicle/camptothecin viability	viability with camptothecin (% of control)	viability without drug (% of control)	Call
CDH1 (GeneID 999)	3	-0.0126	95.1	94.3	inactive
CDH1 (GeneID 999)	4	-0.27	104	86.2	inactive
SMARCA4 (GeneID 6597)	1	-0.0203	86.3	85.1	inactive
